# Library screening results

Data taken from ChEMBL document CHEMBL3988442, “University of Dundee, Small-Polar-MMV Screening Library” (2021).

Mtb growth Cornell: 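Whole-cell assay for inhibitors of Mycobacterium tuberculosis growth, labelled Cornell in the record; the read-out is not stated. The concentration is filed as 10 mM, unlikely as a test dose, so the dose is not known. Higher means stronger inhibition (inferred from two other growth screens of the library). Size under these conditions: about 53,000 compounds, about 900 of them at 50% or above in at least one test.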
Mtb heat-shock: 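Assay on Mycobacterium tuberculosis, filed only as a heat shock assay from Cornell; the read-out is not stated. The concentration is filed as 10 mM, unlikely as a test dose, so the dose is not known. Direction is inferred from retests: higher values go with stronger inhibition. About 69,000 compounds were tested under these conditions; 1.4% (about 930) showed 50% or more at least once.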

Values are the deposited “Percent Effect”, in %. The record does not define 0% and 100%; most values in the screen are far below 50% and negative numbers occur (in some assays of this library far below -100). Compounds were drawn at random from those tested, without regard to their results. A dash means the value is not listed here; it may have been measured.

| # | Compound | Mtb growth Cornell | Mtb heat-shock |
|---|---|---|---|
| 1 | `CCOCCOCc1cccc(CNc2cncc(-n3cccn3)n2)c1` | 10.02% | -0.8634% |
| 2 | `Cc1nc(-c2cccnc2)ncc1C(=O)N1CCC(C(C)N(C)C)CC1` (configuration not stated) | 17.39% | -5.801% |
| 3 | `c1ccc(CCN2CCCC(c3noc(C4CC4)n3)C2)cc1` (configuration not stated) | -3.317% | 18.84% |
| 4 | `Cc1cnccc1NCCNC(=O)[C@H]1CNC[C@H](C(=O)N2CCCC2)C1` | -35.09% | -14.68% |
| 5 | `Cc1ncccc1NC(=O)C1=NOC2(CCN(Cc3nccs3)C2)C1` (configuration not stated) | -19.35% | 2.15% |
| 6 | `CNC(=O)C(C)S(=O)(=O)Cc1csc(-c2cccs2)n1` (configuration not stated) | 25.83% | -4.666% |
| 7 | `Cc1ccc2c(n1)N(CC1CC1)CCN(C(=O)c1ccncc1F)C2.O=C(O)C(F)(F)F.O=C(O)C(F)(F)F` | -5.888% | -13.11% |
| 8 | `CC(=O)N1CCC(N2CCOC[C@H]2c2nc(-c3cccnc3)c[nH]2)CC1` | -23.89% | -54.69% |
| 9 | `CCCS(=O)(=O)NCc1nc(C)cc(N2CCCC2)n1` | -56.21% | 32.38% |
| 10 | `CN1CCC(N2CCC(C(=O)N(C)C)CC2)CC1.O=C(O)C(F)(F)F.O=C(O)C(F)(F)F` | 6.174% | 19.02% |
| 11 | `CCCn1nc(C(=O)N2CCCC2c2noc(C)n2)ccc1=O` (configuration not stated) | -19.85% | -27.27% |
| 12 | `CCS(=O)(=O)N1CCN(C)c2ncccc2C1` | 13.26% | 10.39% |
| 13 | `CC(C)C(=O)NC1CCCN(C(=O)c2cc3ccccc3cc2O)C1` (configuration not stated) | -58.76% | -11.19% |
| 14 | `COc1ccc(CN)c(OC(F)F)c1.Cl` | -0.1841% | -12.27% |
| 15 | `Cc1ccc2nc(CN3CCN(C4CCCC4)C(=O)C3)cc(O)c2c1` | -18% | 7.26% |
| 16 | `Cc1cn2c(n1)CCC(NC(=O)c1cc(C(C)C)no1)C2` (configuration not stated) | - | 14.53% |
| 17 | `CC[C@@]1(O)CCN(C(=O)CCNC(=O)c2ccc(F)cc2)C[C@H]1O` | -35.32% | -1.679% |
| 18 | `CC(=O)NC[C@@]1(COc2cnccn2)C[C@@H](O)[C@@H](O)C1.Cl` | 3.396% | 6.139% |
| 19 | `Cc1cnn(CCCn2c(C)cc(C(F)(F)F)cc2=O)c1` | 1.417% | -34.27% |
| 20 | `COCC(=O)N1CCn2c(CN3CCN(C)CC3)cnc2C1.O=C(O)C(F)(F)F.O=C(O)C(F)(F)F` | 30.45% | -3.65% |
| 21 | `c1ccc(CNc2nc(N3CCOCC3)nc3nccnc23)cc1` | -2.727% | 17.29% |
| 22 | `Cc1nc(N2CCC3(CCCNC3=O)C2)nc2c1CCCC2` (configuration not stated) | 2.723% | -13.13% |
| 23 | `CCn1nc(C)c2nc(C(C)C)nc(N3CCC(O)CC3)c21` | -19.95% | -7.109% |
| 24 | `Cc1ncc(-c2ccncc2)c(C2CCCN(C(=O)c3ccno3)C2)n1` (configuration not stated) | -41.07% | -0.2415% |
| 25 | `CC(C)(O)CCc1ccc(C(=O)N2CCN(CC(F)(F)F)CC2)cc1` | 30.27% | -21.29% |
| 26 | `COc1ccc(-n2ccc(C(=O)NCCN3CCCC(C)C3)n2)cc1` (configuration not stated) | -24.18% | -16.19% |
| 27 | `O=C(NCC(O)c1cccc(F)c1)c1sccc1OC(F)F` (configuration not stated) | -5.982% | -25.88% |
| 28 | `Cc1ccc(NCCCNC(=O)NCc2c(C)cc(C)[nH]c2=O)nc1` | 21.26% | -20.37% |
| 29 | `COc1cc(C)nc(N2CCN(C(=O)c3ccn(C)c(=O)c3)CC2)n1` | 29.4% | -3.442% |
| 30 | `O=C(O)C(F)(F)F.O=C(O)C(F)(F)F.[H][C@@]12CN(CC3CCOCC3)C[C@]1([H])OCCN2CC(=O)NC` | -1.883% | -15.21% |
| 31 | `Cc1nn(C)cc1C1=NS(=O)(=O)N(C)C(C(=O)Nc2ccc(Br)cc2)=C1` | 18.36% | 7.186% |
| 32 | `Cc1ccc(CN(C)C(=O)Cn2nc(-c3ccc(F)cc3)oc2=O)cc1` | 17.66% | -1.704% |
| 33 | `O=C(NC1CC1)C(c1ccccc1)N1CCN(Cc2ccc(Cl)s2)CC1` (configuration not stated) | -8.936% | -25.84% |
| 34 | `Fc1ccc2nc([C@H]3CCNC3)[nH]c2c1` | -6.871% | -51.22% |
| 35 | `COc1cc(C(=O)N(C2CC2)C2CC(=O)NC2=O)ccc1C` (configuration not stated) | -13.44% | 9.157% |
| 36 | `Cc1c[nH]c(CN(C)C(=O)C2CC(=O)N(Cc3ccncc3)C2)n1` (configuration not stated) | -26.02% | -7.175% |
| 37 | `COc1ccc(CN2CCCC(N3CCCC3)C2)cc1Cn1cncn1` (configuration not stated) | - | -42.58% |
| 38 | `CN(C)c1ncccc1CNc1snc(Cl)c1C#N` | -5.622% | -23.23% |
| 39 | `Cc1csc(C2CCCCN2C(=O)CCCn2cccn2)n1` (configuration not stated) | 2.733% | 2.228% |
| 40 | `CNC(=O)CN1CCCC12CCN(C(=O)c1ccsc1)CC2.O=C(O)C(F)(F)F` | -33.7% | -20.96% |
| 41 | `CCC(NC(=O)Nc1cc(F)c(OC)c(F)c1)c1noc(C)n1` (configuration not stated) | -5.309% | 19.37% |
| 42 | `CCN(Cc1ccc2c(c1)OCO2)C(=O)NCc1nc(C)cs1` | -28.89% | 7.8% |
| 43 | `CCS(=O)(=O)Nc1ccn(Cc2cccc(F)c2)n1` | -38.51% | 13.62% |
| 44 | `COCCn1c2c(ccc1=O)CCN(C(=O)NC1CC1)CC2` | 18.72% | 8.019% |
| 45 | `Cc1ccc(CNCC2Cn3nncc3CO2)s1` (configuration not stated) | -5.318% | 12.92% |
| 46 | `NC(=O)c1cccc(OCC(=O)N2CCCC(n3cccn3)C2)c1` (configuration not stated) | -4.174% | 10.28% |
| 47 | `CCn1ncc(S(=O)(=O)NC(C)c2cc(OC)ccc2OC)c1C` (configuration not stated) | -21.75% | -9.52% |
| 48 | `COCC(=O)N[C@H]1C[C@@H](Cc2cc(CN3CCCCC3)on2)C1(C)C` | -32.97% | -17.66% |
| 49 | `CC(C)C(C(=O)N1CCN(Cc2ccccn2)CC1)n1cncn1` (configuration not stated) | 3.521% | -7.978% |
| 50 | `CCn1c(C)nnc1CN(C)C1CCN(CCCOC)C1` (configuration not stated) | - | 5.472% |
| 51 | `OC1(CN2CCN(c3cccc(C(F)(F)F)c3)CC2)CNCCOC1` (configuration not stated) | 7.762% | -13.26% |
| 52 | `CCOc1ccc(S(=O)(=O)N(C)Cc2cnn(CC)c2)cc1` | - | -9.713% |
| 53 | `COCCN1C(=O)CCC12CCCN(C(=O)CC1CC1)CC2` (configuration not stated) | 15.62% | -6.39% |
| 54 | `COc1ccc(-c2noc([C@@H]3C[C@H](NC(=O)NC(C)C)CN3C)n2)cc1` | -26.87% | -42.11% |
| 55 | `COc1cccc(OCC2CCCN(C(=O)c3cc(C)n[nH]3)C2)c1` (configuration not stated) | 19.34% | -16.94% |
| 56 | `CC(Cn1cccn1)NC(=O)N1CCN(Cc2ccsc2)CC1` (configuration not stated) | - | -20.63% |
| 57 | `COc1cc(CNCC2CNc3ccnn3C2)ccn1` (configuration not stated) | -43.88% | -3.711% |
| 58 | `[H][C@@]12CCC(=O)N(CCc3c[nH]cn3)[C@]1([H])CCN(Cc1cnn(C)c1)C2` | 24.95% | -29.26% |
| 59 | `COCC1CN(S(=O)(=O)C2CC2)Cc2ncn(CC3CC3)c21` (configuration not stated) | - | -25.77% |
| 60 | `CC(=O)N[C@@H]1C[C@H](Cc2ccccc2)O[C@H](c2ccc(C(=O)O)cc2)C1` | -17.79% | -9.829% |
| 61 | `Cc1csc(C(C#N)C(=O)NCc2cccnc2)n1` (configuration not stated) | -0.263% | 4.12% |
| 62 | `COc1ccc(-c2noc(CN3CC(n4cccn4)C3)n2)c(OC)c1` | -17.46% | 31.84% |
| 63 | `O=C(c1cc2c(s1)CCOC2)N1CCCC1Cn1cccn1` (configuration not stated) | -27.76% | -12.13% |
| 64 | `Cc1ccc2nc(CN(C)Cc3[nH]nc4c3CCC4)[nH]c2c1C` | 6.504% | 98.38% |
| 65 | `CCc1nnc2n1CC(CNCc1ccncc1)CC2` (configuration not stated) | 8.695% | 102.6% |
| 66 | `Cc1ccc(O)c(CN(Cc2ccccc2)Cc2nccs2)n1` | - | -10.22% |
| 67 | `COc1ccccc1[C@@H]1CN(Cc2nccn2C)C[C@H]1C(=O)O` | 16.77% | 3.572% |
| 68 | `CC(C)c1cc(C(=O)N2CCN(c3ncc4c(n3)CCOC4)CC2)on1` | -0.8267% | -11.34% |
| 69 | `O=C(NCC(O)c1ccc(Cl)c(F)c1)NC1CC=CC1` (configuration not stated) | - | 19.56% |
| 70 | `Cc1ncc(CN(C)CC(O)c2cccc(C(F)(F)F)c2)s1` (configuration not stated) | -32.9% | -8.321% |
| 71 | `OCCN1CCN(Cc2cc3c(cc2Br)OCCO3)CC1` | -50.33% | -23.28% |
| 72 | `CN(C(=O)CSc1ncc[nH]1)C1CC1` | -51.29% | -3.811% |
| 73 | `O=S(=O)(NCC1COCCO1)c1ccc(C2CCCCC2)cc1` (configuration not stated) | 10.81% | 1.4% |
| 74 | `COc1ccc(Cl)cc1C(=O)NC(CC(=O)O)c1cccs1` (configuration not stated) | -26.28% | -1.831% |
| 75 | `CC(C)(C)NS(=O)(=O)c1ccccc1CNCc1cccc(O)c1` | 6.516% | 18.46% |
| 76 | `O=C1NCCN1C1CCCN(Cc2coc(-c3ccc(F)cc3)n2)C1` (configuration not stated) | 6.566% | -8.953% |
| 77 | `O=C(c1cc2c(s1)CCC2)N1CCN(c2cnccn2)CC1` | 24.44% | 10.03% |
| 78 | `CN(Cc1nc(Cc2ccccc2F)no1)CC1Cc2ccccc2O1` (configuration not stated) | -2.494% | 2.93% |
| 79 | `[H][C@]12CC[C@](O)(CC1)C(COC)N2S(=O)(=O)c1cn(C)cn1` (some centres not stated) | -8.097% | 22.31% |
| 80 | `Cc1cncc(C(=O)N2Cc3ccccc3C3(CCN(C)CC3)C2)c1` | 0.7247% | 1.34% |
| 81 | `CCC(CNC(=O)Cc1c(C)noc1C)N1CCCC1` (configuration not stated) | 25.34% | 8.2% |

Once more, the final 8:

COc1ccc(Cl)cc1C(=O)NC(CC(=O)O)c1cccs1 (configuration not stated) gave Mtb growth Cornell: -26.28%; Mtb heat-shock: -1.831%.
CC(C)(C)NS(=O)(=O)c1ccccc1CNCc1cccc(O)c1 gave Mtb growth Cornell: 6.516%; Mtb heat-shock: 18.46%.
O=C1NCCN1C1CCCN(Cc2coc(-c3ccc(F)cc3)n2)C1 (configuration not stated) gave Mtb growth Cornell: 6.566%; Mtb heat-shock: -8.953%.
O=C(c1cc2c(s1)CCC2)N1CCN(c2cnccn2)CC1 gave Mtb growth Cornell: 24.44%; Mtb heat-shock: 10.03%.
CN(Cc1nc(Cc2ccccc2F)no1)CC1Cc2ccccc2O1 (configuration not stated) gave Mtb growth Cornell: -2.494%; Mtb heat-shock: 2.93%.
[H][C@]12CC[C@](O)(CC1)C(COC)N2S(=O)(=O)c1cn(C)cn1 (some centres not stated) gave Mtb growth Cornell: -8.097%; Mtb heat-shock: 22.31%.
Cc1cncc(C(=O)N2Cc3ccccc3C3(CCN(C)CC3)C2)c1 gave Mtb growth Cornell: 0.7247%; Mtb heat-shock: 1.34%.
CCC(CNC(=O)Cc1c(C)noc1C)N1CCCC1 (configuration not stated) gave Mtb growth Cornell: 25.34%; Mtb heat-shock: 8.2%.